PubChem BioAssay (Tox21)
Where “and” joins values, the source holds several entries; their conditions need not be identical. Equal values may be shown once. Inconclusive results, whose numbers are uncertain, are shown with a selection of clear calls. For part of these data: Where the call is inconclusive, the potency comes from a doubtful curve fit. Some compounds were tested as several samples or in several runs, with calls that do not always agree. Calls of active or inactive are those of the source. Unless noted, the call rests on the fitted dose curve; in most records, active means well fitted curve in the direction sought with a large enough effect in the repeat runs; inconclusive means weak or mixed curves; inactive means no such curve, though single readings can be large; an effect the other way counts as inactive or inconclusive.

Chains of the proteins cited; added tags and fusions are not shown. Lines headed by an entry give the natural chain unless they say otherwise; changes in a name come on top.
UniProt P19793: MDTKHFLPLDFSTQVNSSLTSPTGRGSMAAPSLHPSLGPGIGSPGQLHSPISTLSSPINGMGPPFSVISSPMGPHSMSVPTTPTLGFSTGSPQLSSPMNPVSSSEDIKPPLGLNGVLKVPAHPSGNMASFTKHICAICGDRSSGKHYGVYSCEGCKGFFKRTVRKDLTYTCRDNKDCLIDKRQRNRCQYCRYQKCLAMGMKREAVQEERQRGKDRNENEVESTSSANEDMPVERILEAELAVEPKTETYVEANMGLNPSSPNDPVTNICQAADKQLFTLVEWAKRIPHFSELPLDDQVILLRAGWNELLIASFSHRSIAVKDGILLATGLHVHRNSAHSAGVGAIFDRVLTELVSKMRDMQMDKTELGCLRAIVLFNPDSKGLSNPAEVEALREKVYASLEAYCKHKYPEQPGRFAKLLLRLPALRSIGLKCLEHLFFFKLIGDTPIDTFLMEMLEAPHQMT

Experiments:
[1] = target: Retinoic acid receptor RXR-alpha (Homo sapiens) (UniProt P19793); assay: qHTS assay to identify small molecule agonists of the RXR signaling pathway (AID 1159527; calls by dose curve; further: nearly all actives have a fitted effect of over 35% in size; on activation: on the % scale 0 is the no-effect control and ±100 the full control effect); details: HEK293T RXRa-UAS-bla, beta-lactamase ratio, 16 h
Summary of the method: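 GeneBLAzer RXR-alpha-UAS-bla HEK 293T cells in medium with 2% charcoal-stripped FBS, pre-incubated 5 hr at 37 C, then exposed to compounds 16 hr. Beta-lactamase reporter read by FRET substrate, 2 hr room temperature, 460/530 nm emission.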

[2] = qHTS assay to identify small molecule agonists of the RXR signaling pathway - cell viability counter screen (AID 1159529); details: RXR-alpha-bla HEK293T viability, CellTiter-Glo, 16 h; series mostly up to 76.8 µM; further: nearly all actives have a fitted effect of over 50% in size
Summary of the method: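 RXR-alpha-UAS-bla HEK 293T cells in medium with 2% charcoal-stripped FBS were preincubated 5 hr, then exposed to compounds for 16 hr at 37 C. Viability was read as CellTiter-Glo luminescence after 30 min at room temperature.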

[3] = qHTS assay to identify small molecule antagonists of the estrogen related receptor signaling pathway with the pleiotropic PPARgamma coactivator (PGC) cell viability counter screen (AID 1224822;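 further: viability read after 17.5 h compound exposure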); details: ERR/PGC reporter cell line viability counter screen; series mostly up to 46.1 µM
Summary of the method: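 Viable cell signal (CellTiter-Fluor, 30 min, 37 C/5% CO2) was measured in PGC/ERR cells after a 17.5 h compound incubation.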

[4] = qHTS assay to identify small molecule antagonists of the retinoid acid receptor (RAR) signaling pathway - cell viability counter screen (AID 1159551); details: C3RL4 cells viability, ATP luminescence (CellTiter-Glo), 6 h; series mostly up to 92.4 µM; further: nearly all actives have a fitted effect of over 35% in size
Summary of the method: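 Viability of C3RL4 cells is quantified from ATP by luminescence after 6 h treatment at 37 C with compounds and 1 uM retinol.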

[5] = qHTS assay to identify small molecule agonists of the retinoic acid receptor (RAR) signaling pathway (AID 1159553); details: C3RL4 RARE luciferase reporter, agonist, 6 h; activation: at 73.3 µM (top of the series) unless noted; on activation: on the % scale 0 is the no-effect control and ±100 the full control effect
Summary of the method: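 Compounds dissolved in DMSO were pinned onto C3RL4 cells seeded the previous day, and plates were held 6 hr at 37 C. RARE-driven luciferase output was then read by luminescence.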

[6] = qHTS assay to identify small molecule antagonists of the estrogen related receptor (ERR) signaling pathway - cell viability counter screen (AID 1224818); details: ERR reporter cell line viability counter screen; series mostly up to 46.1 µM;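 further: viability measured after 17.5 h of compound exposure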
Summary of the method: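 Cytotoxicity check run alongside the ERR antagonist screen: cells exposed to test compounds 17.5 h at 37 C, viability taken as CellTiter-Fluor fluorescence intensity.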

[7] = tested on: estrogen-related receptor alpha (ERRalpha) with PGC-1alpha coactivator, human; assay: qHTS assay to identify small molecule antagonists of the estrogen related receptor signaling pathway with the pleiotropic PPARgamma coactivator (PGC) (AID 1224821; calls by dose curve; further: nearly all actives have a fitted effect of over 50% in size); details: ERR/PGC reporter cell line, luciferase, antagonist mode; series mostly up to 46.1 µM
Summary of the method: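 Screening used NTP's PGC/ERR cells, dosed via pin tool with compound in DMSO alongside positive and negative controls. After 18 h at 37 C, One-Glo reagent sat 30 min at room temperature before luminescence detection.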

[8] = activation: at 76.8 µM (top of the series) unless noted
Potency means the concentration at half of the fitted maximal effect.

Oc1cccc(O)c1
activation ([1]; at 76.8 µM (top of the series)): inconclusive: 4.66%

CC1=CC2C3CC(C=C3C)C2C1 (stereo not drawn)
activation ([1]; at 76.8 µM (top of the series)): inactive: 3.97%

CC(=O)c1c(C)c([N+](=O)[O-])c(C(C)(C)C)c([N+](=O)[O-])c1C
Potency [1, 8]: active: 21.9 µM
Potency [2]: inconclusive: 61.6 µM [cytotoxic, partial curve, poor fit]

CCCCCCCCCCCCCCCCOP(=O)([O-])OCC[N+](C)(C)C
activation [1, 8]: inconclusive: -36.8% [at 35.3 µM]
Potency [2]: inconclusive: 26.8 µM [cytotoxic, single point]

O=S(=O)(c1cccc2cnccc12)N1CCCNCC1
Potency [1, 8]: inactive
Potency [2]: inconclusive: 21.3 µM [cytotoxic, partial curve]

CC(C)CC(C)(C)C
activation [1, 8]: inconclusive: -22.8%
Potency [2]: inconclusive: 18 µM [cytotoxic, full curve]

CCCCCCCCCCCCOC(=O)c1ccc(O)cc1
Potency [1, 8]: inactive
Potency [2]: inactive

COc1c(C)c2c(c(O)c1C/C=C(\C)CCC(=O)O)C(=O)OC2
Potency [1, 8]: inconclusive: 3.79 µM [rising, partial curve, poor fit]
Potency [2]: inconclusive: 0.674 µM [cytotoxic, full curve]

c1cc(C(c2ccc(OCC3CO3)cc2)c2ccc(OCC3CO3)cc2)ccc1OCC1CO1 (stereo not drawn)
Potency [1, 8]: inconclusive: 21.9 µM [rising, full curve]
Potency [2]: inconclusive: 43.6 µM [cytotoxic, partial curve]

C[C@]12C[C@H](O)[C@H]3[C@@H](CCC4=CC(=O)CC[C@@]43C)[C@@H]1CC[C@@H]2C(=O)CO
Potency [1, 8]: inconclusive: 23.9 µM [rising, partial curve, poor fit]
activation [1, 8]: inconclusive: -22.3%
Potency [2]: inactive
Potency [3]: inactive

CCC(=O)OC/C=C/c1ccccc1
Potency [1, 8]: inactive
Potency [2]: inconclusive: 21.9 µM [rising, partial curve, poor fit]

O=[N+]([O-])c1ccc(O/N=C/c2cc(Br)c(O)c(Br)c2)c([N+](=O)[O-])c1
Potency [1, 8]: inconclusive: 19.4 µM [inhibitor, partial curve]
Potency [2]: inconclusive: 3.87 µM [cytotoxic]

CCCN(CCc1cccs1)[C@H]1CCc2c(O)cccc2C1
Potency [1, 8]: inactive
Potency [2]: inconclusive: 26.8 µM [cytotoxic, single point]

COc1cccc([C@H](O)C2CCN(CCc3ccc(F)cc3)CC2)c1OC
activation [1, 8]: inconclusive: -2.58%
Potency [2]: inconclusive: 0.174 µM [cytotoxic, partial curve, poor fit]

C[C@@H](CN(C)C)CN1c2ccccc2Sc2ccccc21
activation [1, 8]: inconclusive: -21.6% [at 35.3 µM]
Potency [2]: inconclusive: 10.7 µM [cytotoxic, full curve]

Cc1cccc(Oc2ccccc2)c1
Potency [1, 8]: inconclusive: 4.26 µM
Potency [2]: active: 1.9 µM

CCCCCCCCCCCCN1CCCCCC1=O
Potency [1, 8]: inconclusive: 54.9 µM [inhibitor]
Potency [2]: inconclusive: 11 µM [cytotoxic, partial curve, poor fit]

Nc1ncn([C@@H]2O[C@H](CO)[C@@H](O)[C@H]2O)c(=O)n1
Potency [1, 8]: inconclusive: 2.13 µM [inhibitor]
activation [1, 8]: inconclusive: -12.5%
Potency [4]: inconclusive: 54.5 µM [rising, partial curve, poor fit]
Potency [5]: inconclusive: 68.6 µM [inhibitor] and inconclusive: 26.6 µM [inhibitor, partial curve]
Potency [6]: inconclusive: 1.41 µM [cytotoxic]
Potency [7]: active: 3.1 µM
Potency [3]: inconclusive: 1.68 µM [cytotoxic, full curve]

O=C(O)C1(C(=O)Nc2ccc(Cl)cc2Cl)CC1
Potency [1, 8]: inconclusive: 13.8 µM [activator]
Potency [2]: inconclusive: 49 µM [cytotoxic, single point]

CCOC(=O)C(C#N)=C(c1ccccc1)c1ccccc1
Potency [1, 8]: inconclusive: 7.56 µM [inhibitor, partial curve, poor fit]
activation [1, 8]: inconclusive: -21%
Potency [5]: inactive

C[C@H](CCC(=O)O)[C@H]1CC[C@H]2[C@@H]3CC[C@@H]4C[C@H](O)CC[C@]4(C)[C@H]3C[C@H](O)[C@]12C
Potency [1, 8]: inconclusive: 22 µM [rising, full curve]
Potency [2]: inconclusive: 34.8 µM [cytotoxic, partial curve, poor fit]

O=C(CCCN1CCC(O)(c2ccc(Cl)cc2)CC1)c1ccc(F)cc1
activation ([1]; at 35.3 µM (top of the series)): inconclusive: -8.43%
activation ([1]; at 76.8 µM (top of the series)): inconclusive: -40.7%
Potency [4]: inconclusive: 68.6 µM [cytotoxic, partial curve, poor fit]

OC[C@H]1O[C@@H]2O[C@H]3[C@H](O)[C@@H](O)[C@@H](O[C@H]4[C@H](O)[C@@H](O)[C@@H](O[C@H]5[C@H](O)[C@@H](O)[C@@H](O[C@H]6[C@H](O)[C@@H](O)[C@@H](O[C@H]7[C@H](O)[C@@H](O)[C@@H](O[C@H]8[C@H](O)[C@@H](O)[C@@H](O[C@H]1[C@H](O)[C@H]2O)O[C@@H]8CO)O[C@@H]7CO)O[C@@H]6CO)O[C@@H]5CO)O[C@@H]4CO)O[C@@H]3CO
Potency [1, 8]: inconclusive: 43.8 µM [partial curve]
Potency [2]: active: 21.9 µM

CCCCCCOC(=O)c1ccccc1
Potency [1, 8]: inconclusive: 49 µM [activator, partial curve, poor fit]
Potency [2]: inconclusive: 54.9 µM [cytotoxic, partial curve, poor fit]

CCCCCCCCCCCCCCCCCCOS(=O)(=O)O
Potency [1, 8]: inconclusive: 61.6 µM [cytotoxic, single point]
Potency [2]: active: 43.6 µM

Cc1ccc(O)c([C@H](CCN(C(C)C)C(C)C)c2ccccc2)c1
Potency [1, 8]: inactive
Potency [2]: inconclusive: 7.56 µM [cytotoxic, partial curve, poor fit]

CCCCCC[C@@H](O)C/C=C\CCCCCCCC(=O)OCC(O)CO (stereo partly drawn)
Potency [1, 8]: active: 49 µM
Potency [2]: inconclusive: 43.6 µM [cytotoxic, partial curve]

NS(=O)(=O)c1cc2c(cc1Cl)NC(CC1CCCC1)NS2(=O)=O (stereo not drawn)
Potency [1, 8]: inactive
Potency [2]: inactive

C[C@@H](C1=C(CCN(C)C)Cc2ccccc21)c1ccccn1
Potency [1, 8]: inactive
Potency [2]: inconclusive: 23.9 µM [cytotoxic, single point]

O=C1OC2(c3ccccc31)c1cc(I)c(O)c(I)c1Oc1c2cc(I)c(O)c1I
activation [1, 8]: inconclusive: -20.9%
activation ([1]; at 35.3 µM (top of the series)): inactive: 0.511%
Potency [2]: inconclusive: 7.85 µM [cytotoxic, partial curve, poor fit] and inconclusive: 21.1 µM [cytotoxic, partial curve, poor fit]
Potency [4]: inconclusive: 15.5 µM [cytotoxic, partial curve] [middle of 4 runs]
Potency [5]: inconclusive: 41.7 µM [inhibitor]

O=C(O)Cc1cccc2ccccc12
Potency [1, 8]: inconclusive: 19.5 µM [activator, partial curve, poor fit]
Potency [2]: inconclusive: 54.9 µM [cytotoxic, partial curve, poor fit]

Nc1c2ccccc2nc2ccccc12
Potency [1, 8]: inconclusive: 24.2 µM [fluorescent, partial curve]
activation [1, 8]: inconclusive: 18.7% [at 35.3 µM]
Potency [2]: inconclusive: 5.42 µM [cytotoxic, full curve, poor fit] and inconclusive: 9.52 µM [cytotoxic, partial curve, poor fit]

Oc1ccc(CCNCCCCCCNCCc2ccccc2)cc1O
Potency [1, 8]: inconclusive: 0.601 µM [rising, partial curve, poor fit]
Potency [2]: inconclusive: 2.68 µM [cytotoxic, partial curve, poor fit]

C#C[C@]1(O)CC[C@H]2[C@@H]3CCc4cc(O)ccc4[C@H]3CC[C@@]21C
Potency [1, 8]: inconclusive: 15.4 µM [inhibitor, partial curve, poor fit]
activation [1, 8]: inconclusive: -28.6%
Potency [2]: inconclusive: 19.4 µM [cytotoxic, partial curve, poor fit]
Potency [5]: inconclusive: 18.8 µM [inhibitor, partial curve]

CCCCCc1ccc(N)cc1
Potency [1, 8]: inactive
Potency [2]: inconclusive: 38.9 µM [cytotoxic, partial curve, poor fit]

CO[C@@H]1[C@H](OC(=O)/C=C/C=C/C=C/C=C/C(=O)O)CC[C@]2(CO2)[C@H]1[C@@]1(C)O[C@@H]1CC=C(C)C
Potency [1, 8]: inconclusive: 27.5 µM [activator, partial curve, poor fit]
Potency [2]: inconclusive: 21.9 µM [cytotoxic, partial curve]

C[C@@H]1C[C@H]2O[C@@]3(O[C@@H]2C(C)(C)O)[C@H](O)[C@@]2(C)[C@@H]4CC[C@H]5C(C)(C)[C@@H](O[C@@H]6OC[C@@H](O)[C@H](O)[C@H]6O)CC[C@@]56C[C@@]46CC[C@]2(C)[C@@H]13
Potency [1, 8]: inconclusive: 12.1 µM
Potency [2]: inconclusive: 13.6 µM [cytotoxic, partial curve]

OCC1CCCO1 (stereo not drawn)
Potency [1, 8]: inconclusive: 25 µM [activator, partial curve, poor fit] and inconclusive: 49 µM [activator, partial curve, poor fit]
Potency [2]: inactive

CCC(C)N(C)C(=O)c1cc2ccccc2c(-c2ccccc2Cl)n1 (stereo not drawn)
Potency [1, 8]: inconclusive: 6.32 µM [activator]
Potency [2]: inconclusive: 22.4 µM [cytotoxic, partial curve, poor fit]

O=C(O)c1ccccc1-n1cc(C(=O)O)c(=O)c2cc(Nc3c(F)cc(F)cc3Cl)c(Cl)cc21
Potency [1, 8]: inconclusive: 24.5 µM [activator, partial curve, poor fit]
Potency [2]: inconclusive: 1.38 µM [rising, full curve, poor fit]
